According to the supplement of paper PMC12889115:
This is one part of the list. These are raw signals, not scaled to a control.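 In the initial screen, polymyxin B was used at a concentration that permeabilizes Salmonella's outer membrane but not its inner membrane. Maximum growth was set by DMSO wells with or without polymyxin B. Since plates varied, data were ranked per plate, and compounds giving the lowest OD600 advanced as hits.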

Test system: Salmonella enterica serovar Typhimurium SL1344
Test: bacterial growth OD600 after 18 h with compound and polymyxin B; higher = more bacterial growth (less inhibition)
Settings: 50 µM, Mueller-Hinton broth

SMILES | bacterial growth OD600 (polymyxin B 1 µg/mL) | bacterial growth OD600 (polymyxin B 0.75 µg/mL)
O=C(c1ccc2c(c1)OCO2)N1CCCC(Nc2ccc(F)c(F)c2)C1 (centres undefined) | 0.813 | –
CSc1ccc(CC2(CCC(=O)N3CCCC(C(=O)CCc4ccccc4)C3)CCC(=O)N2)cc1 (centres undefined) | – | 0.008
CC(C)Cc1ccc(CN2CCCC(NC(=O)CCc3cnccn3)C2)cc1 (centres undefined) | 1.3 | –
CC(NC(=O)c1ccc(OC2CCN(S(=O)(=O)N(C)C)CC2)cc1)c1nccs1 (centres undefined) | 1.23 | –
COCCN1C(=O)CC(CC(=O)N2CCCCC2c2nccs2)(c2ccccc2OC)C1=O (centres undefined) | – | 0.942
COc1ccccc1CN1CC(C(=O)N2CCC(C(=O)c3ccccc3)CC2)CCC1=O (centres undefined) | 0.913 | –
C=CCN(CC=C)C(=O)c1cc(Cn2ccc3ccccc32)[nH]n1 | 0.78 | –
O=C(c1ccc2oc(CCc3ccccc3)nc2c1)N1CCCC1c1ccccn1 (centres undefined) | 0.813 | –
CCCn1cc(C(=O)N2CCOC(CCCC(C)C)C2)c(C)n1 (centres undefined) | – | 0.87
CC(C)N(C)C(=O)C1CCC(=O)N(CCc2cccc(F)c2)C1 (centres undefined) | 0.858 | –
Cn1nccc1C(=O)N1CCCC(N2CCN(Cc3ccc4c(c3)OCO4)CC2)C1 (centres undefined) | 0.838 | –
COc1ccccc1CCNC(=O)Cc1ccc(N2CCC(NCC3COCCO3)CC2)cc1 (centres undefined) | – | 1.03
CCOC(=O)C1(Cc2ccccc2F)CCCN(C(=O)CCN2CCCC2=O)C1 (centres undefined) | 1 | –
COCc1ccc(C(=O)Nc2ccc(-c3nc(CNC(=O)c4ccccc4N(C)C)c(C)o3)cc2)o1 | – | 0.002
COC(=O)c1ccc(CN2CCCC(c3[nH]ncc3Cc3ccccc3)C2)cc1 (centres undefined) | – | 0.92
CCOC(=O)N1CCN(C(=O)c2ccc3oc(CCc4ccccc4)nc3c2)CC1 | 0.902 | –
O=C(NCc1ccccc1Cl)C1CCC(=O)N(CC2CCCCC2)C1 (centres undefined) | 0.994 | –
CN1CCN(C(=O)CCc2nnc(-c3ccc(-c4ccccc4)cc3)o2)CC1 | 0.89 | –
O=C(c1ccccc1OC1CCN(CC2CCCC2)CC1)N1CCCCC1 | 1.01 | –

By substructure, the entries above with a halogen (4)
SMILES | bacterial growth OD600 (polymyxin B 1 µg/mL) | bacterial growth OD600 (polymyxin B 0.75 µg/mL)
O=C(c1ccc2c(c1)OCO2)N1CCCC(Nc2ccc(F)c(F)c2)C1 (centres undefined) | 0.813 | –
CC(C)N(C)C(=O)C1CCC(=O)N(CCc2cccc(F)c2)C1 (centres undefined) | 0.858 | –
CCOC(=O)C1(Cc2ccccc2F)CCCN(C(=O)CCN2CCCC2=O)C1 (centres undefined) | 1 | –
O=C(NCc1ccccc1Cl)C1CCC(=O)N(CC2CCCCC2)C1 (centres undefined) | 0.994 | –
